Structures are written as SMILES. “And” between values parts separate entries of the source, which are not always exact repeats. Identical values can stand only once. The list shows a part of the results. These are further read-outs of the screen, such as a control signal, another cell line or another target. No call is given for them. The list favours compounds with an active or inconclusive main result. Words in brackets tell the shape of the fitted curve; partial curves, single points and poor fits give uncertain potencies.

As usually defined, the AC50 is the midpoint of the concentration-response curve, whichever way the signal moves.

The assay is described as follows: Cell signaling CRE-BLA (Fsk stim). As to conditions: CHO CRE-bla reporter (cAMP response element driving beta-lactamase), forskolin EC10, beta-lactamase ratio; measured here: 460 nm blue channel. Put shortly: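 Modulation of forskolin signalling: compounds in titration series added with EC10 NKH 477 to CHO cells carrying a CRE-driven beta-lactamase reporter, 3 h, 37C. CCF4 FRET ratio (460/530 nm, ex 405 nm) gives %activity and AC50.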
Consider `CCCn1c(NC(=O)c2ccccc2)nc2ccccc21`, for which the AC50 is 3.16 µM [falling, partial curve].

With `CCOc1ccc(C2C=C(c3ccc(C)cc3)Nc3ncnn32)cc1` (stereo unspecified), the AC50 is 10 µM [rising, partial curve].

Consider `CCOC(=O)Cn1nc(C)c(-c2ccccc2)c1N`, for which the AC50 is 20 µM [falling, single point].

As to `CN1CCN(c2ncc3nc(-c4cn(C)c5ccccc45)c(=O)n(CCc4ccccc4)c3n2)CC1`, the AC50 was 3.16 µM [rising, full curve].

In the case of `CN1CCN(C(=O)c2ccc3c(=O)n(CCc4ccccc4)c(=S)[nH]c3c2)CC1`, the AC50 was 0.126 µM [falling, full curve].

With `N=c1c2c(n(Cc3ccccc3)c3c1CCC3)CCC2`, the AC50 is 0.794 µM [falling, partial curve].

As to `CCOC(=O)C1=C(N)Oc2cc(C)n(CCc3ccc(OC)c(OC)c3)c(=O)c2C1c1cccnc1` (stereo unspecified), the AC50 was 1 µM [rising, full curve].

With `C[C@]12CCC3c4ccc(O)cc4CCC3[C@@H]1CCC2=O` (stereo partly specified), the AC50 is 12.6 µM [falling, single point].

Turning to `COc1ccc(-c2noc(CN(C(=O)c3ccc(OC(C)=O)cc3)C(C)C)n2)cc1OC`, the AC50 is 25.1 µM [rising, single point].

For the compound `COc1cccc(Cn2c(=O)c(CCc3ccccc3)nc3cncnc32)c1`, the AC50 is 0.2 µM [rising, full curve, poor fit].

As to `Cc1cccc(CN2CCN(C(=O)c3ccccc3F)CC2)c1`, the AC50 was 0.0316 µM [falling, full curve, poor fit].

As to `O=S(=O)(/N=C(/Nc1cc(N2CCOCC2)ncn1)c1ccc(F)cc1)c1ccccc1`, the half-maximal activity concentration (AC50) was 20 µM [rising, single point].

Regarding `CCOC(=O)N1CCC(NC(=O)CCCN2C(=O)CSc3ncccc32)CC1`, the AC50 was 0.316 µM [falling, full curve].

With `CC(C)c1nc(N2CCCC2)c(C#N)c2c1CCCC2`, the AC50 is 15.8 µM [rising, single point].

As to `O=C(c1ccc(Br)o1)N1CCN(C/C=C/c2ccccc2)CC1`, the AC50 is 25.1 µM [rising, single point].

As for `CCN1CCc2c(sc(N)c2C#N)C1`, the AC50 was 12.6 µM [rising, partial curve, poor fit].

Take `COc1cc(OC)cc(-c2nc3nc(C)c(CCC(=O)NCc4ccco4)c(C)n3n2)c1`: the AC50 was 0.00316 µM [falling, full curve, poor fit].

On to `O=S(=O)(Nc1ccc(-c2cn3ccsc3n2)cc1)c1ccc2c(c1)OCCO2`, for which the AC50 is 10 µM [rising, single point].

Consider `O=C1CC(c2ccco2)Cc2nc(Nc3nc(-c4ccccc4)c4ccccc4n3)ncc21` (stereo unspecified), for which the AC50 was 1.26 µM [rising, single point].

In the case of `CC(C)OCCCNC(=O)c1cc2c(=O)n(C)c3ccccc3c2n1C`, the AC50 was 2.51 µM [rising, full curve].

Regarding `CC(C)(C)Cc1nnc(NS(=O)(=O)Cc2ccccc2)s1`, the AC50 is 0.00316 µM [falling, full curve, poor fit].

As to `CCCCc1c(O)nc(SCC(=O)NCC2CCCO2)[nH]c1=O` (stereo unspecified), the AC50 is 1.58 µM [falling, full curve, poor fit].

With `Cc1sc2c(c1C)c(=O)n(-c1ccccc1)c1nncn21`, the AC50 is 12.6 µM [rising, partial curve].

`COc1ccc(Cn2c(-c3ccco3)nc3oc4ccccc4c(=O)c3c2=O)cc1`: the AC50 is 31.6 µM [falling, single point].

In the case of `CC(=O)NCCN=C(C)c1sc2ccccc2c1O`, the AC50 is 10 µM [rising, single point].

Regarding `O=C(CCc1nc(-c2cccs2)no1)Nc1cnc2ccccc2c1`, the AC50 is 0.1 µM [rising, full curve, poor fit].

As for `CCOC(=O)c1cnc(-n2cc(C)cn2)nc1Nc1ccccc1OC`, the AC50 was 0.398 µM [rising, full curve].

For the compound `Cn1c(=O)c2[nH]cnc2n(-c2ccccc2)c1=O`, the AC50 was 12.6 µM [rising, partial curve].

Regarding `COc1ccc(CCNC(=O)C2CCN(S(=O)(=O)c3cccc4nonc34)CC2)cc1OC`, the AC50 was 0.501 µM [falling, full curve].

Consider `CCCCC(=O)Nc1ccc(NC(=O)c2cc(OC)c(OC)c(OC)c2)cn1`, for which the AC50 is 10 µM [rising, partial curve].

Take `CCn1c(=O)cc(OCC(=O)NCc2ccc(C)o2)c2ccccc21`: the AC50 is 7.94 µM [rising, partial curve].

With `CCc1ccc(CN2C(=O)CCC2(C)C(=O)NC2CCCC2)cc1` (stereo unspecified), the AC50 was 0.316 µM [rising, single point].

With `COCCCNC(=O)CCCC(=O)NCCCOC`, the AC50 is 3.98 µM [falling, single point].

For `CCCCN(C)C(=O)CCC(=O)Nc1ccc2nc(N3CCOCC3)cc(C)c2c1`, the AC50 is 20 µM [rising, single point].

As for `CCn1c(=O)c2c(n3cnnc13)-c1ccccc1CC21CCCCC1`, the AC50 was 2.51 µM [rising, full curve].

Turning to `COC(=O)c1[nH]c2cc(OC)ccc2c1NC(=O)CN1CCOCC1`, the AC50 was 12.6 µM [rising, single point].

Take `COc1ccc(C2=NOC(C(=O)NCCCN3CCOCC3)C2)cc1` (stereo unspecified): the AC50 was 0.1 µM [rising, full curve, poor fit].

In the case of `CCCn1c(C)nc2c(NCCCCN(CC)CC)nc(C)nc21`, the AC50 is 10 µM [rising, partial curve].

On to `CCOC(=O)Cn1c(=O)c2c(nc3n2CCN3c2ccc(C)cc2)n(C)c1=O`, for which the AC50 was 15.8 µM [rising, partial curve].

Turning to `COc1cccc(Cn2c(=O)c(CCc3ccccc3)nc3cnc(N(C)C)nc32)c1`, the half-maximal activity concentration (AC50) is 7.94 µM [rising, partial curve].

Regarding `COc1ccccc1-c1nc(NCCc2cnc[nH]2)c2ccccc2n1`, the AC50 was 12.6 µM [rising, single point].

In the case of `Cc1csc(NC(=O)CSc2nc3sc(C)c(C)c3c(=O)[nH]2)n1`, the AC50 is 2.51 µM [rising, single point].

`O=c1cc(-c2ccc(O)cc2)oc2cc(O)cc(O)c12`: the AC50 was 12.6 µM [falling, single point] and 12.6 µM [falling, partial curve] and 25.1 µM [falling, single point].

Turning to `CCCCC(CC)CNS(=O)(=O)c1ccc2c(c1)CCN2C(=O)CCC(=O)O` (stereo unspecified), the AC50 is 0.00398 µM [falling, full curve, poor fit].

As for `O=c1c2c3nc4ccccc4nc3n(-c3ccc4c(c3)OCCO4)c2ncn1C1CCCC1`, the AC50 is 15.8 µM [rising, single point].

`Cc1cnc(CNc2ncncc2-c2ccc3c(c2)OCO3)cn1`: the AC50 was 5.01 µM [rising, single point].

Turning to `COc1ccc(CNc2ncnc3ccc(-c4ccc(N(C)C)cc4)cc23)c(OC)c1`, the AC50 is 10 µM [rising, partial curve].

As to `Clc1ccccc1C1=Nn2c(nnc2-c2ccncc2)SC1`, the AC50 was 6.31 µM [falling, partial curve].

With `O=C(c1cc2nc(-c3ccccc3)cc(-c3ccccc3)n2n1)N1CCN(C(=O)c2ccco2)CC1`, the AC50 is 1.58 µM [rising, full curve].

As to `CC1=C(C(=O)OCc2ccccc2)C(c2ccc(C(C)(C)C)cc2)NC(=O)N1CCCCCC(=O)O` (stereo unspecified), the AC50 is 7.94 µM [rising, partial curve].

For `COc1cc(Br)cc(/C=N/c2ncn[nH]2)c1O`, the AC50 was 0.00398 µM [falling, full curve, poor fit].

For `COc1ccccc1NC(=O)CN1CCN(CC(=O)Nc2ccc(Cl)c(C(F)(F)F)c2)CC1`, the AC50 is 0.0251 µM [rising, full curve, poor fit].

On to `COc1cc(NC(=O)CN2CCN(S(=O)(=O)c3ccc(C(C)C)cc3)CC2)cc(OC)c1`, for which the AC50 is 3.98 µM [rising, full curve].

Regarding `O=C(CCCc1nc(-c2ccccc2)no1)Nc1cccnc1`, the AC50 is 0.2 µM [rising, single point].

On to `COc1ccc(CCNc2oc(Cc3ccccc3)nc2C#N)cc1OC`, for which the AC50 was 25.1 µM [rising, single point].

With `O=C(Cn1nnc(-c2ccccc2)n1)Nc1ccccc1N1CCOCC1`, the AC50 is 15.8 µM [rising, single point].

Take `c1ccc2c(c1)oc1c(Nc3ccc(CN4CCOCC4)cc3)ncnc12`: the AC50 is 25.1 µM [falling, single point].

Take `Cc1cc(C)n(C(=O)c2cccc(S(=O)(=O)N3CCOCC3)c2)n1`: the AC50 was 0.00631 µM [falling, full curve, poor fit].

With `CCCc1[nH]nc2c1C(c1ccncc1)C(C#N)=C(N)O2` (stereo unspecified), the AC50 is 0.0398 µM [falling, full curve].

Take `COc1ccc(-c2ccc(SCC(=O)N3CCOCC3)nn2)cc1OC`: the AC50 is 12.6 µM [rising, partial curve].

In the case of `Cc1cc2oc(C(=O)N(Cc3ccco3)C3CCS(=O)(=O)C3)cc(=O)c2cc1Cl` (stereo unspecified), the AC50 is 12.6 µM [rising, single point].

In the case of `Cc1onc(-c2ccccc2)c1C(=O)NC(CC(=O)O)c1ccc(OC(C)C)cc1` (stereo unspecified), the AC50 is 20 µM [falling, partial curve, poor fit].

`COc1ccc2cc3cc(C(=O)Nc4ccc5c(c4)OCCO5)oc3nc2c1`: the AC50 is 0.0631 µM [rising, full curve, poor fit].

`Cc1ccc(S(=O)(=O)N(Cc2nccn2C)C(C)C)cc1`: the AC50 is 3.16 µM [falling, full curve, poor fit].

On to `CCOC(=O)C1CCN(C(=O)c2cn(C)c(=O)c3cc(OC)c(OC)cc23)CC1`, for which the AC50 is 10 µM [rising, partial curve].

As to `CCOc1ccccc1NC(=O)Cn1nnc(C(=O)Nc2ccccc2Cl)c1N`, the AC50 was 1.58 µM [rising, full curve].

The values above are taken from PubChem BioAssay AID662 (National Center for Advancing Translational Sciences (NCATS), 2007).
